Experimental data as given in PMC3472068, “Roles of the different components of magnesium chelatase in abscisic acid signal transduction” (Plant Molecular Biology, 2012).
These are yes or no findings as the source states them, for the method shown. For part of these data: In cells and extracts the contact can be indirect. Some entries that bind do so weakly or less than the wild type.

Protein sequences, listed by entry. Tags and fused reporters are not part of them.
UniProt Q9SJE1: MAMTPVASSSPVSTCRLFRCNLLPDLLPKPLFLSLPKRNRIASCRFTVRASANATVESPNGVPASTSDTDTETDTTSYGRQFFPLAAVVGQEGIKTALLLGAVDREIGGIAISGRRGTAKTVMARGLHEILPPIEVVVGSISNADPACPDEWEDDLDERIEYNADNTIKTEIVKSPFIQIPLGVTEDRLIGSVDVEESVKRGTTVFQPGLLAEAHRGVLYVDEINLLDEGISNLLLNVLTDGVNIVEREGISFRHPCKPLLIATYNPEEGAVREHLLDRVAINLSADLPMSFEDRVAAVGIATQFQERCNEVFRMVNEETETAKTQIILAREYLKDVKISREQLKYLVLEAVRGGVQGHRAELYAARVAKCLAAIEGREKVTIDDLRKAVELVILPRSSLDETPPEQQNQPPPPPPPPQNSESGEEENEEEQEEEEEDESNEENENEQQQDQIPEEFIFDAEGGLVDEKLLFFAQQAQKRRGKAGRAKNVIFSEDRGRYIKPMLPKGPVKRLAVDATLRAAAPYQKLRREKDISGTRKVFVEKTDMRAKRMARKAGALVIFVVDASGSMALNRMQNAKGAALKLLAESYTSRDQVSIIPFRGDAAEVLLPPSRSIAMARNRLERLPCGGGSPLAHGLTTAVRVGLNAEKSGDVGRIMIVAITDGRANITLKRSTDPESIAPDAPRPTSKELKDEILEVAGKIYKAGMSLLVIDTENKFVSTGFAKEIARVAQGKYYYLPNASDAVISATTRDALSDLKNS

T1: C-terminal half of CHLH/ABAR (amino acid residues 692-1381) linked to the Gal4 DNA binding domain (Arabidopsis thaliana) (UniProt Q9FNB0)
T1 sequence: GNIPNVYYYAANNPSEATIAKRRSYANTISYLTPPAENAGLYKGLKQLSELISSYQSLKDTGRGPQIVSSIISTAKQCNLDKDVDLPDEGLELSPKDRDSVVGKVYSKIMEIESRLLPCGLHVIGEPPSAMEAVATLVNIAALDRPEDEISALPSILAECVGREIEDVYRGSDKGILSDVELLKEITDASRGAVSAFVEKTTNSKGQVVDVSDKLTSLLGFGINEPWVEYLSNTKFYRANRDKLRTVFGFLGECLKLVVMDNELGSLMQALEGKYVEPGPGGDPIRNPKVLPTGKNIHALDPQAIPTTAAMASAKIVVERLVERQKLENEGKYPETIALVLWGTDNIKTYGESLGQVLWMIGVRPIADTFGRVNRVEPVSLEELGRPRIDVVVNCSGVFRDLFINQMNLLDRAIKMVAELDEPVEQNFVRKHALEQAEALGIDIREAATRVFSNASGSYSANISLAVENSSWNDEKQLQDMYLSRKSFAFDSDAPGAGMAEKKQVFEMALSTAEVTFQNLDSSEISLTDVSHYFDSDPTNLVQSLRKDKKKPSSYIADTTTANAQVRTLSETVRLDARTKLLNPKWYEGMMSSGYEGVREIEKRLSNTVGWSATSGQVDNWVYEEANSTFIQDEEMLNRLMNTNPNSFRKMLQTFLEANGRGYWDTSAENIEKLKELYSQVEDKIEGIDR

T2: N-terminal half of CHLH/ABAR (amino acid residues 1-691) linked to the Gal4 DNA binding domain (Arabidopsis thaliana) (UniProt Q9FNB0)
T2 sequence: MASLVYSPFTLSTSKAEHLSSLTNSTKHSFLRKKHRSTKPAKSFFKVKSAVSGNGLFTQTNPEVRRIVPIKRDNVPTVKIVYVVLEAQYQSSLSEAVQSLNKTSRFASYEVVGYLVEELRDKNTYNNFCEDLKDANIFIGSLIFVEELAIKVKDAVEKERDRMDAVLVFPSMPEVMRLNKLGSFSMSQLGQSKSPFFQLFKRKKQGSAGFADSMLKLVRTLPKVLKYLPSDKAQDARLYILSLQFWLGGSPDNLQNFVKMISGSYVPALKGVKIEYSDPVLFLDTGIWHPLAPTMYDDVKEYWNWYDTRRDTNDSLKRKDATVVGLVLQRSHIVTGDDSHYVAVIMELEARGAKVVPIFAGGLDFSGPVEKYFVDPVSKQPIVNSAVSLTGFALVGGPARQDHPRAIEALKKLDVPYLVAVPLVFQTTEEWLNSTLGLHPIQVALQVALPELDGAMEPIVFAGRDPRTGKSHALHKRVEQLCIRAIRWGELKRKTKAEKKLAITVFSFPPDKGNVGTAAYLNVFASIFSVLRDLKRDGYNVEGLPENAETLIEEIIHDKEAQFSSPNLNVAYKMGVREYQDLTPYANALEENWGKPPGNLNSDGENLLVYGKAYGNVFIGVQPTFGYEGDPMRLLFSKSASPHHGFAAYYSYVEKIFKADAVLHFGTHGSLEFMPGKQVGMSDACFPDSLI

T3: middle region of CHLH/ABAR (amino acid residues 347-1038) linked to the Gal4 DNA binding domain (Arabidopsis thaliana) (UniProt Q9FNB0)
T3 sequence: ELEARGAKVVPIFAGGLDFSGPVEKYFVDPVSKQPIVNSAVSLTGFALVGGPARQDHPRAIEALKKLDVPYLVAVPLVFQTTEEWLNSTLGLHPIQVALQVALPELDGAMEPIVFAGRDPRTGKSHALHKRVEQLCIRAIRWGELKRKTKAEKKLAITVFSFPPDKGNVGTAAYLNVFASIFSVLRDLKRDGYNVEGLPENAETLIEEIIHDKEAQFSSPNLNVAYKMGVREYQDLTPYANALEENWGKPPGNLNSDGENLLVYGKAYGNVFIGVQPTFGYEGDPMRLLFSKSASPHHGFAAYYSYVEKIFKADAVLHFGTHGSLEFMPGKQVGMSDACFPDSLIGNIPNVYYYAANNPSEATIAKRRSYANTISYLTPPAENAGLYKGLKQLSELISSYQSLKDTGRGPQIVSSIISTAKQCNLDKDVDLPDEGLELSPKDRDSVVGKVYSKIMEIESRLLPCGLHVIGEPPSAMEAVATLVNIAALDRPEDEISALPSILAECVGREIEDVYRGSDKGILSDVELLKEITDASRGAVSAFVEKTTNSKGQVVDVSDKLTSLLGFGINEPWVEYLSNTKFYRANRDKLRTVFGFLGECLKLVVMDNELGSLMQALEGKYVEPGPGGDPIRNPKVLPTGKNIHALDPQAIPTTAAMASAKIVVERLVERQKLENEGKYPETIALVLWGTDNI

T4: full length CHLI1 (I subunit of Mg-chelatase) linked to the Gal4 activation domain (Arabidopsis thaliana) (UniProt P16127)
T4 sequence: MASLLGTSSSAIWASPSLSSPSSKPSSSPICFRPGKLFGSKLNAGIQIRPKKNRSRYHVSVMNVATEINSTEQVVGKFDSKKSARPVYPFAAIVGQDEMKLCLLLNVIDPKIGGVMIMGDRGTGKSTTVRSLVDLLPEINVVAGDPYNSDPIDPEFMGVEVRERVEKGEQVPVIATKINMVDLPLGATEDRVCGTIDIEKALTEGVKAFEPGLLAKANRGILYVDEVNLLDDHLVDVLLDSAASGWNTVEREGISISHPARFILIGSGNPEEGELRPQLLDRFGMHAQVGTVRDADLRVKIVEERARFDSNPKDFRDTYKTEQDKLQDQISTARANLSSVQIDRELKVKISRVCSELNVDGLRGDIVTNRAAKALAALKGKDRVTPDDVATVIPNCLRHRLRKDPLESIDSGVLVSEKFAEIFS


What was measured:
[1] = target: T1, C-terminal half of CHLH/ABAR (amino acid residues 692-1381) linked to the Gal4 DNA binding domain (Arabidopsis thaliana); experiment: two-hybrid; yeast Gal4-based system (Clontech); truncated ABARs on BD (bait, pGBKT7), CHLI1 or CHLD on AD (prey, pGADT7); growth on SD medium lacking Leu, Trp, His and Ade, drop test and liquid β-galactosidase assay (ONPG); with or without 2 μM (±)ABA, which did not affect the interactions
[2] = target: T2, N-terminal half of CHLH/ABAR (amino acid residues 1-691) linked to the Gal4 DNA binding domain (Arabidopsis thaliana); experiment: as above
[3] = target: T3, middle region of CHLH/ABAR (amino acid residues 347-1038) linked to the Gal4 DNA binding domain (Arabidopsis thaliana); experiment: as above
[4] = target: full length CHLD (D subunit of Mg-chelatase) linked to the Gal4 activation domain (Arabidopsis thaliana) (UniProt Q9SJE1); experiment: co-IP; total proteins of the same co-transformed yeast cells; IP with anti-HA serum (HA-tagged CHLI1 or CHLD) and protein A/G Plus-agarose at 4 °C overnight, blot with anti-MYC serum (MYC-tagged ABARs); preimmune serum as control
[5] = target: T4, full length CHLI1 (I subunit of Mg-chelatase) linked to the Gal4 activation domain (Arabidopsis thaliana); experiment: as above

| Molecule | binding [1] | binding [2] | binding [3] | binding [4] | binding [5] |
| --- | --- | --- | --- | --- | --- |
| C-terminal half of CHLH/ABAR (amino acid residues 692-1381) linked to the Gal4 DNA binding domain (domain or fragment, UniProt Q9FNB0 692-1381) GNIPNVYYYAANNPSEATIAKRRSYANTISYLTPPAENAGLYKGLKQLSELISSYQSLKDTGRGPQIVSSIISTAKQCNLDKDVDLPDEGLELSPKDRDSVVGKVYSKIMEIESRLLPCGLHVIGEPPSAMEAVATLVNIAALDRPEDEISALPSILAECVGREIEDVYRGSDKGILSDVELLKEITDASRGAVSAFVEKTTNSKGQVVDVSDKLTSLLGFGINEPWVEYLSNTKFYRANRDKLRTVFGFLGECLKLVVMDNELGSLMQALEGKYVEPGPGGDPIRNPKVLPTGKNIHALDPQAIPTTAAMASAKIVVERLVERQKLENEGKYPETIALVLWGTDNIKTYGESLGQVLWMIGVRPIADTFGRVNRVEPVSLEELGRPRIDVVVNCSGVFRDLFINQMNLLDRAIKMVAELDEPVEQNFVRKHALEQAEALGIDIREAATRVFSNASGSYSANISLAVENSSWNDEKQLQDMYLSRKSFAFDSDAPGAGMAEKKQVFEMALSTAEVTFQNLDSSEISLTDVSHYFDSDPTNLVQSLRKDKKKPSSYIADTTTANAQVRTLSETVRLDARTKLLNPKWYEGMMSSGYEGVREIEKRLSNTVGWSATSGQVDNWVYEEANSTFIQDEEMLNRLMNTNPNSFRKMLQTFLEANGRGYWDTSAENIEKLKELYSQVEDKIEGIDR | – | – | – | binds | binds |
| N-terminal half of CHLH/ABAR (amino acid residues 1-691) linked to the Gal4 DNA binding domain (domain or fragment, UniProt Q9FNB0 1-691) MASLVYSPFTLSTSKAEHLSSLTNSTKHSFLRKKHRSTKPAKSFFKVKSAVSGNGLFTQTNPEVRRIVPIKRDNVPTVKIVYVVLEAQYQSSLSEAVQSLNKTSRFASYEVVGYLVEELRDKNTYNNFCEDLKDANIFIGSLIFVEELAIKVKDAVEKERDRMDAVLVFPSMPEVMRLNKLGSFSMSQLGQSKSPFFQLFKRKKQGSAGFADSMLKLVRTLPKVLKYLPSDKAQDARLYILSLQFWLGGSPDNLQNFVKMISGSYVPALKGVKIEYSDPVLFLDTGIWHPLAPTMYDDVKEYWNWYDTRRDTNDSLKRKDATVVGLVLQRSHIVTGDDSHYVAVIMELEARGAKVVPIFAGGLDFSGPVEKYFVDPVSKQPIVNSAVSLTGFALVGGPARQDHPRAIEALKKLDVPYLVAVPLVFQTTEEWLNSTLGLHPIQVALQVALPELDGAMEPIVFAGRDPRTGKSHALHKRVEQLCIRAIRWGELKRKTKAEKKLAITVFSFPPDKGNVGTAAYLNVFASIFSVLRDLKRDGYNVEGLPENAETLIEEIIHDKEAQFSSPNLNVAYKMGVREYQDLTPYANALEENWGKPPGNLNSDGENLLVYGKAYGNVFIGVQPTFGYEGDPMRLLFSKSASPHHGFAAYYSYVEKIFKADAVLHFGTHGSLEFMPGKQVGMSDACFPDSLI | – | – | – | binds | binds |

Other lines, results leading:

| binding [1] | binding [2] | binding [3] | binding [4] | binding [5] | Molecule |
| --- | --- | --- | --- | --- | --- |
| binds | binds | binds | – | – | full length CHLD (D subunit of Mg-chelatase) linked to the Gal4 activation domain (from UniProt Q9SJE1 1-760) |
| – | – | – | binds | binds | middle region of CHLH/ABAR (amino acid residues 347-1038) linked to the Gal4 DNA binding domain (domain or fragment, UniProt Q9FNB0 347-1038) ELEARGAKVVPIFAGGLDFSGPVEKYFVDPVSKQPIVNSAVSLTGFALVGGPARQDHPRAIEALKKLDVPYLVAVPLVFQTTEEWLNSTLGLHPIQVALQVALPELDGAMEPIVFAGRDPRTGKSHALHKRVEQLCIRAIRWGELKRKTKAEKKLAITVFSFPPDKGNVGTAAYLNVFASIFSVLRDLKRDGYNVEGLPENAETLIEEIIHDKEAQFSSPNLNVAYKMGVREYQDLTPYANALEENWGKPPGNLNSDGENLLVYGKAYGNVFIGVQPTFGYEGDPMRLLFSKSASPHHGFAAYYSYVEKIFKADAVLHFGTHGSLEFMPGKQVGMSDACFPDSLIGNIPNVYYYAANNPSEATIAKRRSYANTISYLTPPAENAGLYKGLKQLSELISSYQSLKDTGRGPQIVSSIISTAKQCNLDKDVDLPDEGLELSPKDRDSVVGKVYSKIMEIESRLLPCGLHVIGEPPSAMEAVATLVNIAALDRPEDEISALPSILAECVGREIEDVYRGSDKGILSDVELLKEITDASRGAVSAFVEKTTNSKGQVVDVSDKLTSLLGFGINEPWVEYLSNTKFYRANRDKLRTVFGFLGECLKLVVMDNELGSLMQALEGKYVEPGPGGDPIRNPKVLPTGKNIHALDPQAIPTTAAMASAKIVVERLVERQKLENEGKYPETIALVLWGTDNI |
| binds | binds | binds | – | – | full length CHLI1 (I subunit of Mg-chelatase) linked to the Gal4 activation domain (protein, UniProt P16127 1-424) MASLLGTSSSAIWASPSLSSPSSKPSSSPICFRPGKLFGSKLNAGIQIRPKKNRSRYHVSVMNVATEINSTEQVVGKFDSKKSARPVYPFAAIVGQDEMKLCLLLNVIDPKIGGVMIMGDRGTGKSTTVRSLVDLLPEINVVAGDPYNSDPIDPEFMGVEVRERVEKGEQVPVIATKINMVDLPLGATEDRVCGTIDIEKALTEGVKAFEPGLLAKANRGILYVDEVNLLDDHLVDVLLDSAASGWNTVEREGISISHPARFILIGSGNPEEGELRPQLLDRFGMHAQVGTVRDADLRVKIVEERARFDSNPKDFRDTYKTEQDKLQDQISTARANLSSVQIDRELKVKISRVCSELNVDGLRGDIVTNRAAKALAALKGKDRVTPDDVATVIPNCLRHRLRKDPLESIDSGVLVSEKFAEIFS |
